Test results reported in PubChem BioAssay AID2012 (Sanford-Burnham Center for Chemical Genomics, 2009).
The other results are listed elsewhere or left out.

molecular target: Eukaryotic translation initiation factor 4H (Homo sapiens) (UniProt Q15056); experiment: human eIF4H binding inhibitors, primary screen, translation initiation inhibitor project, biochemical, uHTS, fluorescence polarization (AID 2012); conditions: eIF4H fluorescence polarization binding assay; confirmation average; at 20 µM; stronger effect = higher value

| SMILES | inhibition |
| --- | --- |
| COc1ccc(OP(C)(=O)Nc2ccc(SC(F)(F)F)cc2)cc1 (stereo not drawn) | 1% |
| CC(C)(C)C(=O)NC(Sc1ccccc1)C(Cl)(Cl)Cl (stereo not drawn) | -13.6% |
| O=[N+]([O-])c1ccc(O)c(/C=N/Nc2ccc([N+](=O)[O-])cc2[N+](=O)[O-])c1 | -3.6% |
| CC(=O)NC(SC(=S)N(C)C)C(Cl)(Cl)Cl (stereo not drawn) | 79.9% |
| O=[N+]([O-])c1cc([N+](=O)[O-])c(CCN2CCOCC2)c([N+](=O)[O-])c1 | 96.6% |
| O=[N+]([O-])c1cc([N+](=O)[O-])c(-c2ccn[nH]2)s1 | 102% |
| CCOC(=O)Nc1ccc([As](=O)(O)O)c(O)c1 | 95.4% |
| CS(=O)(=O)c1cc([N+](=O)[O-])c2no[n+]([O-])c2c1 | 104% |
